PubChem BioAssay AID1259254, NCATS, 2017

- Aim: 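Gene knock-downs that lead to re-replication, shown by excess G2 DNA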 (primary screen)
- System: human HCT116 colorectal cancer cells
- Reagents: single siRNA against human genes
- Time to read-out: 3 days
- Measurement: 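Imaged Hoechst DNA stain sorts each cell into a cycle phase by DNA amount; per plate, G2 fraction set to 0% for non-targeting and 100% for GMNN siRNA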
- Reading the numbers: G2 robust z-score and G2 cells, % of GMNN control: higher = more G2 cells, more excess DNA replication; raw share of cells in G2: higher = larger share of cells with G2 DNA content
- Call rule: 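Active siRNAs have a G2 robust z of 5 or more median absolute deviations over the median, which in these data means about 38% or higher of GMNN control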
The deposit covers about 59,000 reagents; this is a part drawn at random. About 1,550 of them (2.6%) count as active. 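G2 share is only a proxy for re-replication; each gene was hit by three separate siRNAs, and active genes were retested.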 The raw values are shown without normalisation. Entries without a mark were called inactive. The numbers tell different reagents against one gene apart. Not given: the amount of reagent.

| Target gene | siRNA no. | G2 robust z-score | G2 cells, % of GMNN control | raw share of cells in G2 (%) |
| --- | --- | --- | --- | --- |
| RAB39A (GeneID 54734) | 1 | -0.0972 | 2.28 | 6.99 |
| RAB39A (GeneID 54734) | 2 | -0.47 | -0.343 | 4.12 |
| RAB39A (GeneID 54734) | 3 | -0.00824 | 2.91 | 4.92 |
| NAA30 (GeneID 122830) | 1 | -0.973 | -3.87 | 3.87 |
| NAA30 (GeneID 122830) | 2 | -1.1 | -4.8 | 2.91 |
| NAA30 (GeneID 122830) | 3 | -0.733 | -2.19 | 3.65 |
| CHORDC1 (GeneID 26973) | 1 | 0.978 | 9.85 | 7.62 |
| CHORDC1 (GeneID 26973) | 2 | 0.347 | 5.41 | 6.59 |
| CHORDC1 (GeneID 26973) | 3 | 0.884 | 9.19 | 6.15 |
| CEBPB (GeneID 1051) | 1 | 1.86 | 16 | 10.7 |
| CEBPB (GeneID 1051) | 2 | -1.61 | -8.37 | 1.94 |
| CEBPB (GeneID 1051) | 3 | 1.26 | 11.9 | 8.18 |
| PDXP (GeneID 57026) | 1 | 0.325 | 5.25 | 6.5 |
| PDXP (GeneID 57026) | 2 | 1.61 | 14.3 | 8.62 |
| PDXP (GeneID 57026) | 3 | -1.29 | -6.11 | 1.66 |
| PRDM13 (GeneID 59336) | 1 | 0.00112 | 2.98 | 3.84 |
| PRDM13 (GeneID 59336) | 2 | -0.577 | -1.09 | 5.42 |
| PRDM13 (GeneID 59336) | 3 | 0.972 | 9.81 | 6.71 |
| ZFAND1 (GeneID 79752) | 1 | 0.238 | 4.64 | 5.87 |
| ZFAND1 (GeneID 79752) | 2 | 0.287 | 4.98 | 7.51 |
| ZFAND1 (GeneID 79752) | 3 | 5.91 (active) | 44.6 | 21.3 |
| ZNF404 (GeneID 342908) | 1 | -0.217 | 1.44 | 3.59 |
| ZNF404 (GeneID 342908) | 2 | 0.135 | 3.92 | 4.53 |
| ZNF404 (GeneID 342908) | 3 | 1.35 | 12.5 | 7.9 |
| VRTN (GeneID 55237) | 1 | -0.847 | -2.99 | 2.18 |
| VRTN (GeneID 55237) | 2 | -0.497 | -0.528 | 4.32 |
| VRTN (GeneID 55237) | 3 | 0.183 | 4.25 | 5.9 |
| REXO5 (GeneID 81691) | 1 | 1.19 | 11.4 | 10.2 |
| REXO5 (GeneID 81691) | 2 | -0.108 | 2.21 | 4.99 |
| REXO5 (GeneID 81691) | 3 | 2.05 | 17.4 | 11.2 |
| SLC67A2 (GeneID 84804) | 1 | 4.75 | 36.4 | 20.6 |
| SLC67A2 (GeneID 84804) | 2 | -0.49 | -0.481 | 4.02 |
| SLC67A2 (GeneID 84804) | 3 | 1.95 | 16.7 | 11 |
| SLK (GeneID 9748) | 1 | 1.47 | 13.3 | 9.73 |
| SLK (GeneID 9748) | 2 | -0.915 | -3.47 | 3.93 |
| SLK (GeneID 9748) | 3 | -0.368 | 0.378 | 3.8 |
| RENBP (GeneID 5973) | 1 | -1.57 | -8.08 | 2.2 |
| RENBP (GeneID 5973) | 2 | 3.35 | 26.5 | 14.8 |
| RENBP (GeneID 5973) | 3 | 0.453 | 6.16 | 6.19 |
| SLC22A6 (GeneID 9356) | 1 | 2.03 | 17.2 | 12.4 |
| SLC22A6 (GeneID 9356) | 2 | 5.35 (active) | 40.6 | 19.5 |
| SLC22A6 (GeneID 9356) | 3 | -1.18 | -5.32 | 2.8 |
| HYAL3 (GeneID 8372) | 1 | -1.32 | -6.35 | 2.43 |
| HYAL3 (GeneID 8372) | 2 | -0.612 | -1.34 | 4.79 |
| HYAL3 (GeneID 8372) | 3 | 0.0197 | 3.11 | 5.95 |
| LY6G5C (GeneID 80741) | 1 | -0.738 | -2.22 | 1.77 |
| LY6G5C (GeneID 80741) | 2 | 0.451 | 6.14 | 6.99 |
| LY6G5C (GeneID 80741) | 3 | -0.246 | 1.23 | 4.84 |
| TMEM174 (GeneID 134288) | 1 | -0.0586 | 2.56 | 5.14 |
| TMEM174 (GeneID 134288) | 2 | 1.39 | 12.7 | 7.14 |
| TMEM174 (GeneID 134288) | 3 | -0.219 | 1.42 | 3.1 |
| SEMA6D (GeneID 80031) | 1 | -1.03 | -4.27 | 3.21 |
| SEMA6D (GeneID 80031) | 2 | 3.68 | 28.8 | 14.6 |
| SEMA6D (GeneID 80031) | 3 | 1.21 | 11.5 | 10.2 |
| TMEM9B (GeneID 56674) | 1 | 1.1 | 10.7 | 8.57 |
| TMEM9B (GeneID 56674) | 2 | 0.0729 | 3.48 | 6.12 |
| TMEM9B (GeneID 56674) | 3 | 0.551 | 6.85 | 5.2 |
| ZNF33B (GeneID 7582) | 1 | -0.191 | 1.62 | 4.07 |
| ZNF33B (GeneID 7582) | 2 | -0.669 | -1.74 | 5.21 |
| ZNF33B (GeneID 7582) | 3 | 0.342 | 5.37 | 5.59 |
| SDCBP (GeneID 6386) | 1 | -0.528 | -0.746 | 3.16 |
| SDCBP (GeneID 6386) | 2 | 0.615 | 7.29 | 5.75 |
| SDCBP (GeneID 6386) | 3 | -0.339 | 0.585 | 5.12 |
| SPMIP11 (GeneID 255411) | 1 | -0.286 | 0.957 | 3.5 |
| SPMIP11 (GeneID 255411) | 2 | 0.494 | 6.44 | 5.91 |
| SPMIP11 (GeneID 255411) | 3 | -0.129 | 2.06 | 3.84 |
| RP2 (GeneID 6102) | 1 | -0.429 | -0.0526 | 5.59 |
| RP2 (GeneID 6102) | 2 | 3.63 | 28.5 | 15 |
| RP2 (GeneID 6102) | 3 | -0.8 | -2.66 | 3.09 |

Looked up above.
Under “G2 robust z-score”, PDXP (GeneID 57026) #1 shows 0.325
Result of TMEM174 (GeneID 134288) #2 under “G2 robust z-score”: 1.39
Value for HYAL3 (GeneID 8372) #1 in “raw share of cells in G2 (%)”: 2.43
